{"source": "PubChem BioAssay AID1259405 (NCATS, 2018)", "assay": "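Mouse-designed siRNAs used to find CHO productivity engineering targets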 (primary screen)", "cells": "Chinese hamster CHO-K1 ovary cells with stable secreted eGFP expression", "knock-down reagent": "single siRNA against mouse genes, 0.8 pmol siRNA per well (2 µl of 400 nM stock)", "timing": "3 days", "measured": "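Percent of the per-plate non-targeting control median for intracellular GFP per well by laser scanning cytometry and for cell viability by ATP luminescence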", "reading the numbers": "GFP, % of control: higher = more GFP per well, higher productivity; viability (ATP), % of control: higher = more viable cells (more ATP)", "rule for the call": "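Called active when intracellular GFP, relative to negative control, is at or above 120%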", "note": "This is a random part of about 50,000 reagents. About 4,000 of all reagents (8%) count as active. 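Mouse siRNA library applied to hamster cells; one well for each siRNA.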 A number with no mark means an inactive call. Reagent sequences are not shown."}
{"Target gene": "Cttnbp2nl (CTTNBP2 N-terminal like)", "PubChem SID": "SID363546643", "GFP, % of control": 39.4, "viability (ATP), % of control": 26.7}
{"Target gene": "Cttnbp2nl (CTTNBP2 N-terminal like)", "PubChem SID": "SID363548399", "GFP, % of control": 57.2, "viability (ATP), % of control": 65.1}
{"Target gene": "Cttnbp2nl (CTTNBP2 N-terminal like)", "PubChem SID": "SID363560577", "GFP, % of control": "133 (active)", "viability (ATP), % of control": 64.6}
{"Target gene": "Ptms (parathymosin)", "PubChem SID": "SID363543932", "GFP, % of control": 76.4, "viability (ATP), % of control": 66.9}
{"Target gene": "Ptms (parathymosin)", "PubChem SID": "SID363551668", "GFP, % of control": "142 (active)", "viability (ATP), % of control": 154}
{"Target gene": "Ptms (parathymosin)", "PubChem SID": "SID363559273", "GFP, % of control": 109, "viability (ATP), % of control": 80.2}
{"Target gene": "Or6c6 (olfactory receptor family 6 subfamily C member 6)", "PubChem SID": "SID363554679", "GFP, % of control": 83.2, "viability (ATP), % of control": 75.2}
{"Target gene": "Or6c6 (olfactory receptor family 6 subfamily C member 6)", "PubChem SID": "SID363568126", "GFP, % of control": 76.6, "viability (ATP), % of control": 66.3}
{"Target gene": "Or6c6 (olfactory receptor family 6 subfamily C member 6)", "PubChem SID": "SID363586185", "GFP, % of control": 76.5, "viability (ATP), % of control": 102}
{"Target gene": "Ift122 (intraflagellar transport 122)", "PubChem SID": "SID363556891", "GFP, % of control": 55.5, "viability (ATP), % of control": 57.9}
{"Target gene": "Ift122 (intraflagellar transport 122)", "PubChem SID": "SID363563795", "GFP, % of control": 69.7, "viability (ATP), % of control": 62.5}
{"Target gene": "Ift122 (intraflagellar transport 122)", "PubChem SID": "SID363587341", "GFP, % of control": 89.5, "viability (ATP), % of control": 92.3}
{"Target gene": "Dcps (decapping enzyme, scavenger)", "PubChem SID": "SID363545538", "GFP, % of control": 68.6, "viability (ATP), % of control": 72.1}
{"Target gene": "Dcps (decapping enzyme, scavenger)", "PubChem SID": "SID363549051", "GFP, % of control": 81.9, "viability (ATP), % of control": 78}
{"Target gene": "Dcps (decapping enzyme, scavenger)", "PubChem SID": "SID363562857", "GFP, % of control": 28.9, "viability (ATP), % of control": 47.5}
{"Target gene": "Cyp3a16 (cytochrome P450, family 3, subfamily a, polypeptide 16)", "PubChem SID": "SID363544209", "GFP, % of control": "144 (active)", "viability (ATP), % of control": 127}
{"Target gene": "Cyp3a16 (cytochrome P450, family 3, subfamily a, polypeptide 16)", "PubChem SID": "SID363550537", "GFP, % of control": 72.3, "viability (ATP), % of control": 75.2}
{"Target gene": "Cyp3a16 (cytochrome P450, family 3, subfamily a, polypeptide 16)", "PubChem SID": "SID363557086", "GFP, % of control": 38, "viability (ATP), % of control": 45.9}
